# The supplement of paper PMC5949888
# Most values lie at the floor of the assay. Slopes are relative: functional sequences can read slightly below zero.
# Tested on: Saccharomyces cerevisiae PS128 hsf1 delta, HSF1(1-493) fusion
# Test: growth estimate (transactivation domain function in HSF1 fusion, heat-shock survival) (a.u. (slope of normalised read count over time)); higher = stronger growth at 37°C, i.e. more transactivation activity
# Conditions: library: random library
row,Substance,growth estimate
1,SNGFTSCFGTRWTINWA,< -0.25
2,YTPKRMTSGC,< -0.25
3,ICLPGVVTEETCDN,< -0.25
4,SYKDVVTRRIVRSTANNALF,< -0.25
5,IRNPL,< -0.25
6,GPMNV,< -0.25
7,WYGPSAT,< -0.25
8,ASAPMPQSLLPSRADHQDPA,< -0.25
9,HLVFGFIR,< -0.25
10,LEHDRLPPPREDHGTIHAWS,< -0.25
11,SPRSHPKRFQSTAY,< -0.25
12,QPALPVKSLLISHGPC,< -0.25
13,FLEPAGKGGKIHNTLADVPP,< -0.25
14,AGQYSRTRARVFHAFIPAVR,< -0.25
15,GQVTKRWLYTHLAGYLHFYV,< -0.25
16,LGHGGGIGSLRIRQLCEAES,< -0.25
17,SCENLRCVFRFSAQLFVG,< -0.25
18,VQKYTSRWDL,< -0.25
19,THCLLIPEKRG,< -0.25
20,CISGLVAEQDRTMIRRWITR,< -0.25
21,LVTLQPRQTYDQKTTVPARN,< -0.25
22,DSSPLPLGEPAFKLSVGELF,< -0.25
23,KQYRWRV,< -0.25
24,SVLRE,< -0.25

# A few values from the entries so far.
# Value for ICLPGVVTEETCDN under growth estimate: < -0.25
# Value for SPRSHPKRFQSTAY under growth estimate: < -0.25
# Value for LGHGGGIGSLRIRQLCEAES under growth estimate: < -0.25
# Value for SNGFTSCFGTRWTINWA under growth estimate: < -0.25
# Value for VQKYTSRWDL under growth estimate: < -0.25
# Value for LEHDRLPPPREDHGTIHAWS under growth estimate: < -0.25

# Further records follow:

row,Substance,growth estimate
1,MESVVRQPPRRLSAVGPCLV,< -0.25
2,LTTSVISRSTFRVIQV,< -0.25
3,FSDWRGSVGVDKLLARGRH,< -0.25
4,VEAKLCTAYKIGEGRWGCHS,< -0.25
5,TLVNQDTRIS,< -0.25
6,SHL,< -0.25
7,SSVSERLNQLGKLAAPTRGP,-0.246
8,KGVMPAQNSSLRPQGRPKGA,< -0.25
9,GQLHCGISARSIEEL,< -0.25
10,WLRVWLPSKNERAFAR,< -0.25
11,SIDEKSIDAMAGNVSVEREV,< -0.25
12,QTSAWFTGLEGQEHEMEGFA,0.461
13,KSYVLWMGCQRRLSWFAENE,< -0.25
14,ILGGFGRDLFGPWGLKGL,< -0.25
15,PSRSACM,< -0.25
16,VLVCTGSGGFELSRVTDAQR,< -0.25
17,FANQPWVKDGPMGLLNNQSD,< -0.25
18,MLT,< -0.25
19,ADA,< -0.25
20,SRLNWRGDCWESEVNITCLR,< -0.25
21,CREGRL,< -0.25
22,PYVSAVAEPN,< -0.25
23,TVNGLCRDQLSPLIIFRTKG,< -0.25
24,SVEGCLYNVRSTTLTTPQAA,< -0.25

row,Substance,growth estimate
1,APGHFQIVPGSSGSLQIGIY,< -0.25
2,ERRAEGLGLKLLGGRGL,< -0.25
3,TVG,< -0.25
4,FRIWPGEGATRVRVRPVLQR,< -0.25
5,WRLVNQDTHP,< -0.25
6,AKAVKDALLT,< -0.25
7,LEDSEHVFWSPMTLGRLNPQ,< -0.25
8,QWDRLSLSVSVGSGRSSCIH,< -0.25
9,SLYGIAELLLDVETSNSGRQ,-0.192
10,TWTQSPGNLDFKSARERKSS,< -0.25
11,IADHGSHVGGTKTSQIDAIN,< -0.25
12,TLSDSRYGSEDSLLRYRDHP,< -0.25
13,VIY,< -0.25
14,VHLGSVGSPSLGNERVAPVA,< -0.25
15,WTGMYSAPREGRALKMAE,< -0.25
16,RLVEYLPYSRWLYSNTQYTY,-0.237
17,DFVSPLLRRG,< -0.25
18,DLRGIS,< -0.25
19,ELEPGKAGFVIDGGA,< -0.25
20,TTGSLYSREFQQSWKDRAAQ,< -0.25
21,VLVVHIVGRVMLGSYRYYGP,< -0.25
22,LAKM,< -0.25
23,LKGGWEWQTERHVLRWSFSR,< -0.25
24,DRPSCVQGLRL,< -0.25

row,Substance,growth estimate
1,SLVTRAVAYTIRRYREKFRS,< -0.25
2,SFYSSCNF,< -0.25
3,ARGGFRRGVSDAP,< -0.25
4,RTAFR,< -0.25
5,LLKRSPARTKGGVGTNSSRK,< -0.25
6,QVTRTTQH,-0.246
7,DGDSAKWRRPKSEAFHTPRG,< -0.25
8,AYLNGTAMSVEVSAVCPDSR,< -0.25
9,ISDERKGTFAPSSHVPVNSR,< -0.25
10,VCQGLGDRDPIPK,< -0.25
11,NISHFTMRSLDCGPSDKS,< -0.25
12,YNSHCVLPQASAAGFQYAKV,< -0.25
13,HRWQS,< -0.25
14,ESGSPPACLQKPPFEGM,< -0.25
15,RDAGSYGNQQNWIARACMGI,1.56
16,AFTWGGCGGKTHILLAFIRR,< -0.25
17,AIRGPRTKVLEFQR,< -0.25
18,IPTDVIN,< -0.25
19,ALRCLKCLRDSPAGPYRFVF,< -0.25
20,RNSIALTARRASVTFGLILP,< -0.25
21,VREGPAKESSYRLVEVVRVN,< -0.25
22,TQKASFYCRLPTWKREGQHG,< -0.25
23,ISSVWYWFLRRVFQLRNGHT,< -0.25
24,EVGASKGSSRDRTINPYSFQ,< -0.25

row,Substance,growth estimate
1,VHGPAMVNYPAASSCTRAGR,< -0.25
2,CWKAACEKVRVSI,< -0.25
3,VLREPGK,< -0.25
4,GRGLAQADGSSRVKTGHSTH,< -0.25
5,ISGYFGNPHALLKKARCA,< -0.25
6,IHDVRQRQAKIQVSL,-0.248
7,RINRDPFYLISHANSDVHHL,< -0.25
8,GNTAGRRSSQWLSSKQWAAF,< -0.25
9,GHLQFKFNKDPPGTDLGESR,< -0.25
10,SFEIDLGLWVVPCPGTDNAV,< -0.25
11,LRLASTITIFTG,< -0.25
12,YTNADFTWAIPGGLGS,< -0.25
13,HQLYLSHEKRTRIKGTVQHG,< -0.25
14,RVVRINPPPVRHGTAVHSGG,< -0.25
15,KNGDTGWQ,< -0.25
16,VSILSIVVRLAHIG,< -0.25
17,QNP,< -0.25
18,SNLIERAGPLHTQITVECRP,< -0.25
19,PSRRWDSAAGHFAPIVDVIP,< -0.25
20,KGVQRSLSRGLRAPFT,< -0.25
21,KFQLPMIAGREGYAVSKRC,< -0.25
22,DSRRPRRGTVPSSLHFNLSV,< -0.25
23,SAYW,< -0.25
24,KGGGKNSPMTLSANPL,< -0.25

row,Substance,growth estimate
1,YLVTVDRYKQKRYVRYPTVE,< -0.25
2,FPSGVIQLYVPTHPMSRSRP,< -0.25
3,TTGVLFTLTMGKGPPLAGHP,< -0.25
4,SDFLQRHVDRAGSLYACWVE,< -0.25
5,EESNLHISRRVGFCVSSHLR,< -0.25
6,RKKQIREWLTGSTMPHAWYP,< -0.25
7,LVPQFC,< -0.25
8,DCFVGFFYCGCQDRGEKWLA,< -0.25
9,YSLNSQSEGRFLLASSVLSN,< -0.25
10,SETKLSWKPVVGRRAPITVG,< -0.25
11,HPLRKAAIDICLVRL,-0.196
12,EDKWVKTRRIDWQRNTRF,-0.243
13,GESRGWI,< -0.25
14,RPLPRNGVTY,< -0.25
15,ELNRRSGDDSLLAVRYLSAA,< -0.25
16,FGCNCIDA,< -0.25
17,DRSTPVRIQGLPTQGHLACV,< -0.25
18,AEVCYHGPLRPTCDRGLRAQ,< -0.25
19,RLWKRMSEQISWLRISSPLG,< -0.25
20,AGRWLSIE,< -0.25
21,WISSEGRVLDADWRARHRDG,< -0.25
22,TLKKFRGGGTAPPTHGFMAG,< -0.25
23,NEFKQSNL,< -0.25
24,VHLQGLHDSGPGRSSEPVDG,< -0.25

row,Substance,growth estimate
1,LVSFGRVVGIWKSNVWPGRR,< -0.25
2,LVGYGLRPLQFAICGTPRSR,< -0.25
3,DSGSGGQVRAKVHTRTRAHV,< -0.25
4,YHVRVAERATFEPH,< -0.25
5,RRASVTRSSACGVKMIISAR,< -0.25
6,KPLDMSSLLMPGGIRPTGPG,< -0.25
7,PYEGNEKSRMS,< -0.25
8,TWYDKGSWPRAVYARETLVR,< -0.25
9,WGALGVWKAQGLSKATCTER,< -0.25
10,IGLEIAPWLMQGGVCPTGKH,< -0.25
11,KSAGGLGLA,< -0.25
12,AFLSDASSRSGKPHRWRTRQ,< -0.25
13,VWRDYRASVEASLLIMASSR,< -0.25
14,VVHHGGYSPGDTWRDRILKS,< -0.25
15,FDPKPSIWYYGLMNVHPNTL,< -0.25
16,PGDLVLVWRVSGSC,< -0.25
17,KDHLSEPGSLNGLLLHSLVI,< -0.25
18,DPGEGLAEQRFEVK,< -0.25
19,LMQVAGNATALL,< -0.25
20,RFTYDRARNKSALQVGFLLS,< -0.25
21,ALSDQVGTSSLCRGCVALIP,< -0.25
22,ASW,< -0.25
23,PTGACRISSAFAPDL,< -0.25
24,FAGALWLAALMPGCPETVLA,< -0.25

row,Substance,growth estimate
1,LSSLTQTLSPVEHAWSPLAP,< -0.25
2,WQCLITDSYRSGFVLSLLSP,< -0.25
3,QALPQEGDNRRLFEVCDLSS,< -0.25
4,LWGPIHVGVIRRPELYWV,-0.231
5,RSRRLLIGVRVI,< -0.25
6,HFSIVGCRCGAQSILSKWGS,< -0.25
7,ISKRPERPVSECRGFS,< -0.25
8,ICGSSYK,< -0.25
9,TRYFYAAVPQHLTCF,< -0.25
10,GTAMGGWLA,< -0.25
11,SDLVDNEADVRSTGSQGVGN,< -0.25
12,HAM,< -0.25
13,RGIVEFGLVDAPGQSCGIGE,< -0.25
14,VYSHRTIRVPAE,< -0.25
15,GPTNCTRA,< -0.25
16,GYFSKTAPEGKDDRIVRYTR,< -0.25
17,SRSTLGDFG,< -0.25
18,WQATAAFF,0.465
19,QLSLRAGFTKVINPQLRKVL,-0.245
20,VLGCFTFFSVDLHNEMPART,< -0.25
21,HQNVVGMGSPPHSAFVRQIS,< -0.25
22,RSQGFECQIVATTLGGNALS,< -0.25
23,RKLGHNVRTG,< -0.25
24,LSLCVFLREARTRSLKHDEL,< -0.25
